{
  "source": "patent US6171781",
  "tested_on": "NF-ATc/NF-ATp purified from thymus (Bos taurus)",
  "assay": "binding assay",
  "conditions": "affinity chromatography purification from bovine thymus cytosol; purified native protein; label: coupled to sepharose CL4B",
  "note": "Construct, isoform or probe ends are uncertain for at least one entry.",
  "data": [
    {"sequence": "ACGCCCAAAGAGGAAAATTTGTTTCATACA (double strand) [NF-AT affinity site (multimerized)]", "values": [
      {"measurement": "binding result", "result": "binds"}
    ]}
  ]
}
